Results are given in words; binding and its absence hold for the method and conditions named. In cells and extracts the contact can be indirect. For some of these results: A result given as binding can be weak or reduced; the word gives no strength.

Sequences of proteins named here, by UniProt entry; tags and fusion partners are left off. A change or cut given only in a name is not applied to a line headed by its entry.
UniProt Q0D2I5: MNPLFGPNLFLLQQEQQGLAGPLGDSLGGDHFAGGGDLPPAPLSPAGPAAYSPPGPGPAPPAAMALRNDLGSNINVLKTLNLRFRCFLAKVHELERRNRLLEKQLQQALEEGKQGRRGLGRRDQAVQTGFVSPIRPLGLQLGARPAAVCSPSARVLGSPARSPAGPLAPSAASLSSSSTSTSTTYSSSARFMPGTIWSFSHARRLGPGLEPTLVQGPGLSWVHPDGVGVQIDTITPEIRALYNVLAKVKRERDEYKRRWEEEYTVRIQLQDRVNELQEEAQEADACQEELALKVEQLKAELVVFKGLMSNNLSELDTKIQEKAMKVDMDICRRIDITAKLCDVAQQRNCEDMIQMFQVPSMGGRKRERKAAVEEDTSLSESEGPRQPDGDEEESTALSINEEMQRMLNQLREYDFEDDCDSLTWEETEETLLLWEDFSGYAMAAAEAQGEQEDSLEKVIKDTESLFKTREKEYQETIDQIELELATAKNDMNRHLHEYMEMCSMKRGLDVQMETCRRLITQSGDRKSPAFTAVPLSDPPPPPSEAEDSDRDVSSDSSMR
UniProt Q86VI3: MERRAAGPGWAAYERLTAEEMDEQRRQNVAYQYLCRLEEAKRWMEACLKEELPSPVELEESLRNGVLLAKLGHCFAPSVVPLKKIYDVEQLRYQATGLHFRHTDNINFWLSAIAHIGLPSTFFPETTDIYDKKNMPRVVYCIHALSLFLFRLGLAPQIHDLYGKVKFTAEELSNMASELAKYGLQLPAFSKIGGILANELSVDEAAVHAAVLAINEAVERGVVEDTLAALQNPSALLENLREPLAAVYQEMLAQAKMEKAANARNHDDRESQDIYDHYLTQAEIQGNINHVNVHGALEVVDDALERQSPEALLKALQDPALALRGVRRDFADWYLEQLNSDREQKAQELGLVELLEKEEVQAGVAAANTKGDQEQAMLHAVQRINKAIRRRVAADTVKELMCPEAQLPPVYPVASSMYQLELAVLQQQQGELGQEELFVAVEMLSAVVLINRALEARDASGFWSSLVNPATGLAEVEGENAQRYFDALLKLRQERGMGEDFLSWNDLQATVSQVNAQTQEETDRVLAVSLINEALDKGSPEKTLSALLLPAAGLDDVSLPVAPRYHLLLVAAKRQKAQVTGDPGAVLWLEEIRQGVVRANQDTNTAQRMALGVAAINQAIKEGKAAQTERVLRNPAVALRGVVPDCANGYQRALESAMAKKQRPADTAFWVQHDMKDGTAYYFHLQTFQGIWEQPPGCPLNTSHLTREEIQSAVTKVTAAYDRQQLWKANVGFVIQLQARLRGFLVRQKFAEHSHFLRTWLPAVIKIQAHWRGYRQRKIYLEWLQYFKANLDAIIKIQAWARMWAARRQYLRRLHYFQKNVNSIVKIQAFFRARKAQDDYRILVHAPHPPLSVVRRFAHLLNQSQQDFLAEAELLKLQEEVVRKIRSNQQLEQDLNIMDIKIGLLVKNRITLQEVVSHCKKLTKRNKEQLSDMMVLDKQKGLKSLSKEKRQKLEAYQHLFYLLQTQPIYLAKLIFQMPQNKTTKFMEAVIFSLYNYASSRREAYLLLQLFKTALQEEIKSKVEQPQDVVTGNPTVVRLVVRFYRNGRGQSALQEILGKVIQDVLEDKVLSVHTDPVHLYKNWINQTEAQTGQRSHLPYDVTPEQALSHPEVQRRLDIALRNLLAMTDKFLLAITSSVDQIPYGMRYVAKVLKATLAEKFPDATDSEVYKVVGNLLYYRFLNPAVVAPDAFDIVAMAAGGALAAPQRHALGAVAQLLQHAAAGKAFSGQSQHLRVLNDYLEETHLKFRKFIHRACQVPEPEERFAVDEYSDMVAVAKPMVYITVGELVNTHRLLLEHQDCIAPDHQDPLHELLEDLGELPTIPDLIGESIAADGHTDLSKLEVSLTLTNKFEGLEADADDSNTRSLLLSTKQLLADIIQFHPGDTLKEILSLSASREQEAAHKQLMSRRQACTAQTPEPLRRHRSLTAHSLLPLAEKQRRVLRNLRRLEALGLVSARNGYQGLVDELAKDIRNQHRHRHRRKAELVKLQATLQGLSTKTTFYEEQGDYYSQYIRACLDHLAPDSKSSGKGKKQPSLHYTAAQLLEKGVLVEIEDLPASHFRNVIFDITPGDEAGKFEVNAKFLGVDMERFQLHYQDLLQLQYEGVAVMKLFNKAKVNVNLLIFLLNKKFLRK

This is an account of results in PMC12241364.

What all share (assay): co-IP; full-length IFFO1 and its truncated mutants expressed in IFFO1-/- cells; IP and blot for IQGAP3
Test [1] deals with IFFO1 2A coiled-coil domain deletion mutant (UniProt Q0D2I5).
The target of test [2] is IFFO1 1B coiled-coil domain deletion mutant (UniProt Q0D2I5).
Test [3] deals with IFFO1 2B coiled-coil domain deletion mutant (UniProt Q0D2I5).
Test [4] concerns the target IFFO1 1A coiled-coil domain deletion mutant (UniProt Q0D2I5).

In the case of “IQGAP3 (IQ motif-containing GTPase-activating protein 3), endogenous (from UniProt Q86VI3 1-1631)”, the binding result is reported as “no binding” in test [1], “binds” in test [2], “binds” in test [3] and “binds” in test [4].
